Experimental data: the supplement of paper PMC3334620
The full ranking holds about 33,000 sequences; the median of “E-score (-0.5 to 0.5)” is about -8e-05, and the highest 2% start at about 0.23. This is one part of the list.

Target: T1, Nrg2 (UniProt P38082)
T1 sequence: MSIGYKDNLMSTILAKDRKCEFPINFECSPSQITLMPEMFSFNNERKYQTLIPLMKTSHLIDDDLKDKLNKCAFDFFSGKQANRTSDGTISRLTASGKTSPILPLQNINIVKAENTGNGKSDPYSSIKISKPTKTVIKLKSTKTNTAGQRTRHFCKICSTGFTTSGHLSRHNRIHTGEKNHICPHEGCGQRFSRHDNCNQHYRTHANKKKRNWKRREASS
Experiment: PBM E-score (8-mer binding enrichment) (E-score (-0.5 to 0.5)); higher = stronger / more preferred TF binding
Settings: protein concentration: 100 nM; construct: GST-full length
Protocol: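 Universal 'all 10-mer' protein binding microarrays (Agilent AMADID 015681) probed with GST-tagged S. cerevisiae TFs (full-length or DBD) made by in vitro transcription/translation (PURExpress), about 100-200 nM. Bound TF was detected with fluorescent anti-GST. Each ungapped 8-mer (which stands for itself and its reverse complement) is scored by the PBM enrichment score (E-score), a modified Wilcoxon-Mann-Whitney statistic from -0.5 to +0.5, computed with the Universal PBM Analysis Suite. Scale: above 0.35 generally sequence-specific binding.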

Sequence | PBM E-score
AAAAACTG | -0.178
CGGTGGCC | 0.0203
ACGCTAGT | -0.0728
TACGACTA | 0.0667
ATCTATTG | 0.00621
GCCACTTA | -0.0989
GGGAATGA | 0.155
GAGGTGCC | -0.0447
AGACGCGG | 0.0784
CCCCACTA | -0.0992
CAGCATAC | -0.0945
GCGCGACA | 0.00371
GCACCAAC | -0.0953
CAGAGCTC | -0.145
ACGGTTCA | -0.207
GAGTTACC | 0.0711
GAACCGTC | -0.104
AGAGATCT | -0.146
AGGCACAA | -0.132
ACGGGCTC | -0.324
ACAACGCG | 0.12
GAGCTCGC | 0.112
CGATCCTA | 0.00763
AGGGAACC | 0.0118
GAGTGTAA | -0.187

Sequence | PBM E-score
CCAGTATC | 0.0432
AAGGAAAA | 0.0535
AGGGCAAT | 0.0232
AAGGCGGC | -0.14
AGGGTAAA | 0.172
CCAATCAA | 0.0436
AACATATG | -0.124
AACTTAAT | 0.164
ACATAGTA | 0.0458
CCTTGAGA | 0.094
CTATGCGA | -0.069
ATAATCAT | 0.235
CATGACCA | 0.0185
ACCAGATC | -0.0731
GGCTAGCA | -0.166
CCCGTGCG | 0.122
ACCTACCT | -0.0889
ATGACGCC | -0.122
AAATATGA | 0.155
ATCGAACG | 0.0718
ACATCTGC | -0.051
CTGAGGAC | -0.0637
GGTGTCGA | 0.0796
GCGCAGTA | 0.13
CATAATCC | 0.171

Sequence | PBM E-score
AGAACAGG | -0.122
TTGTTAAA | -0.126
CTTGCCCC | 0
ATATCTTC | 0.165
GAATGGGA | -0.0567
GATCGTCC | 0.0378
ACTACGTC | -0.0921
CCGAATTA | -0.00177
CACGGTTC | -0.0806
AAGCACCC | -0.135
ATACTTTC | 0.0743
GCCACGAA | -0.0816
ACTCTGTC | 0.0724
CTTGATAA | 0.147
GTCAGCAC | -0.0154
CGCTCGCA | 0.1
AAAACAGA | 0.00615
ATATGTCC | 0.0603
ACCCCCAT | -0.247
CGTGGGAG | -0.18
CCGAACCC | -0.102
CCGCACTA | 0.124
CTTCCTAA | -0.0499
TAATCCAA | 0.0765
CCCGAGTA | 0.162

Sequence | PBM E-score
ACTCGAAG | -0.101
CCCTCTCA | -0.212
CCCCAAAC | -0.0816
AACGGACC | -0.0404
ACCGAGAG | 0.0959
GCCGCTTA | -0.00941
GGGCGTGA | 0.0253
CCGAAGAG | -0.104
GTCGACAA | 0.0206
TATACAAA | 0.148
ACAAGTTC | 0.0761
CCAATGAG | 0.0612
AGCTGTCG | -0.197
CTGACGGC | -0.125
AATTACGC | 0.0258
AGGCAAAA | 0.16
ATCACAGA | 0.0396
AGCCAGAT | -0.0992
GGAACTAA | 0.0607
CGATAGTA | 0.0552
CTACATGA | -0.105
CTGTTTGC | 0.0699
TAGCGCGA | 0.175
AGGCCACG | -0.0484
CGATTGAA | -0.0793

Sequence | PBM E-score
AGATAGCA | 0.0387
ACGTGTTA | 0.154
AGCGTTAA | -0.144
AGAAGGAA | -0.216
ATTGTTCA | 0.13
GACTTTAC | 0.0182
CTAGGCGA | -0.0634
ACGGGAAC | -0.036
ACTGAGTG | -0.127
GAAGTGTC | 0.039
AGGTTTCA | 0.111
ACTAAGCA | -0.0896
CCTGCTGC | 0.029
AATCACTC | 0.0286
CATTCTAA | -0.0137
ATCAGAGA | -0.0362
ACGCACCA | -0.0635
TACTATCA | 0.0993
GGGGCAGA | -0.0267
GTTTCGCA | -0.144
CATATACC | -0.16
ACCCGCGT | -0.119
GGTGCTCA | -0.115
CGGACCGC | -0.067
AATCTAGA | -0.11

Sequence | PBM E-score
AGAAGCAC | -0.153
ATCTAACG | 0.0144
AGTAGGAC | 0.0513
ACTGATAG | -0.0128
ACGTTAAG | -0.0628
TGCCACCA | -0.25
CGGATACC | 0.101
ACCTAAGC | 0.0203
CGTTCTCC | 0.0223
AGATCAGA | 0.111
ACGTCCAC | -0.163
AGCCACCC | -0.314
ACCGAAAT | 0.0426
AGCAGTCG | -0.0198
AAAGGTAT | 0.0476
AGCATAAA | -0.0339
GAACCAAA | 0.0228
GCTGCGCC | -0.126
CAACTAAG | 0.0881
CAAGTCTC | -0.299
CAGCTGCA | -0.00861
AGCCCTTC | -0.224
TTACGTAA | -0.134
ACAAACAG | 0.196
TCTGGGCA | -0.144

Fetched one by one from the entries so far (two):
Sequence | PBM E-score
AGCATAAA | -0.0339
CGGATACC | 0.101

Not a retest: entries from further up.
Sequence | PBM E-score
ACCGAAAT | 0.0426
AGCAGTCG | -0.0198
AAAGGTAT | 0.0476

Some of the entries so far, comma-delimited.
Sequence,PBM E-score
ACGGTTCA,-0.207
GAGTTACC,0.0711
GAACCGTC,-0.104
AGAGATCT,-0.146
AGGCACAA,-0.132

Additional entries follow:

Sequence | PBM E-score
AGCCGACT | -0.111
CCCGGCCA | -0.294
CGCGCCGA | 0.0262
TGAAGACA | -0.0868
GATAAGAA | 0.0876
CGAGCATC | 0.0374
AGCCGTAC | -0.00653
AGAACGAA | 0.179
CATATTTA | 0.18
GCCCTAGC | -0.102
GCGGTCAA | -0.0725
CCGCGGTC | 0.01
AAGATAAT | 0.127
GTCTAGCA | 0.00493
TTTGCAAA | 0.0147
TCACGTCA | 0.0171
GAAGTGCA | 0.135
AGTGGGGC | -0.187
TAAAGTGA | 0.0467
ACTCCAAG | -0.0518
ACGGTAAA | -0.0106
GAGTTGCC | 0.0538
